Laboratory results as given in publication PMC10163288.
The list shows a part of the results.

B1: il2ra_site1_1z92_sap_20_mot_HHH_b1_06868_000000124_0001_1_20_H_._HHH_b2_03533_0001_0000400029_0000001_0_0001 (protein)
chain: SSSSSSSAEELFELLRRQLEMARSERTRKWALELLEAVARLANNPELEELVEELKEEFSSSSSSS
B2: il2ra_site1_3nfp_sap_9_mot_HHH_b1_07180_af2_000000260_0001_1_19_H_._HHH_b1_08471_0001_0000200015_0000001_0_0001_af2pred_0001_af2pred_1_swapped (protein)
chain: DEELRELAELILKGDPEKFKELLEEIKRRIGDPTQIRAFLRFIEASAKVAGNPEAEEIVKEIEEK
B3: il2ra_site2_2erj_sap_27_mot_HHH_b1_06157_000000296_0001_22_38_H_._HHH_b1_03854_0001_0000100004_0000001_0_0001 (protein)
chain: SSSSSEEEVQELLKEAKELLEEGNPEEAERVLSRAFELAFELNDPELASKIIELMASIAHSSSSS
B4: il2ra_site2_3nfp_sap_26_mot_HHH_b1_00015_000000185_0001_19_35_H_._HHH_b2_06138_0001_0000600047_0000001_0_0001_af2pred_0001_af2pred (protein)
chain: SSSSSSDEEEEVEKLLEEAKHIEDEFELYAVLADAARIAFELKDEELRRLVKEVRHELSSSSSSS
B5: il2ra_site2_3nfp_normal_mot_HHH_b2_02333_af2_000000028_0001_1_19_H_._HHH_b1_01192_af2_0001_0000200009_0000001_1 (protein)
chain: SSSDVAELANEAFELLQQLREEGDPELREEIEELLEEAKELARSERERRILELLEAALLLLSSSS
B6: il2ra_site1_1z92_normal_mot_HHH_b2_06133_af2_000000132_0001_1_18_H_._HHH_b2_06097_0001_0000100003_0000001_0 (protein)
chain: SSSSSHEEEVERLLREAEEAAERGDNRKWSELLRRALRVAAENRDQELRRKIEEFARELNSSSSS
B7: il2ra_site1_2b5i_normal_mot_HHH_b2_04910_000000118_0001_1_19_H_._HHH_b1_07011_0001_0000200008_0000001_0_af2pred_0001_af2pred (protein)
chain: SSSSSELAKRILELLEEANELFKNGNPEEAREVLQEALELAEELGSRSARKFVEAALRILSSSSS
B8: il2ra_site1_1z92_sap_10_mot_HHH_b1_02460_000000277_0001_1_17_H_._HHH_b2_06201_af2_0001_0000900039_0000001_0_0001 (protein)
chain: TLREELREELEEAAKRGTLEEVVEKLLEMAERDAGDPRLAAQYLKQLLKRLGDPEAKKVLEELRR
B9: il2ra_site2_3nfp_sap_21_mot_HHH_b2_05281_000000198_0001_39_56_H_._HHH_b1_02391_0001_0000600024_0000001_0_0001 (protein)
chain: SSSSSSDNSELISRVIHLRKEGNPEEARELLEEAIELAQENNDEDSVRYLEAVLALLRSSSSSSS
B10: il2ra_site2_2erj_sap_27_mot_46479c6699afdbd8d5d5faf00326b0b9_0001_1_af2_000000112_0001_34_47_H_._HHH_b2_01914_0001_0000400016_0000001_0_0001_af2pred_0001_af2pre … (protein)
chain: SSSSDARELAELARWAARLLEEAGNPEEAREFLRKVLEILEELGNEEAQELVERLLEEIKNSSSS

Molecular target: il2ra, P01589
Experiment: yeast display titration

Apparent Kd, inactive:
B1 no binding seen
B2 no binding seen
B3 no binding seen
B4 no binding seen
B5 no binding seen
B6 no binding seen
B7 no binding seen
B8 no binding seen
B9 no binding seen
B10 no binding seen

Reprinted from above for reference:
Apparent Kd, inactive:
B6 no binding seen
B7 no binding seen
